Measurements reported in PubChem BioAssay AID652272 (Drosophila RNAi Screening Center, 2013)
The screen tested about 21,000 reagents; shown is a random part of those with a known target gene and a result. In the full data, 503 (2.4%) got an active call. 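Raw plate light values, not normalised; calls rest on replicate z-scores that were not deposited; hits include reporter decreases as well as increases.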 Entries without a mark were called inactive. Names joined by + are all predicted targets of the reagent. Reagent sequences are not shown. Not stated in the record: the amount of reagent, the time to read-out.

Screen: 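Finding fly genes that regulate Hedgehog signal transduction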 (primary screen)
Cell system: Drosophila clone 8 (Cl8) cells
Reagent: long dsRNA against Drosophila genes
Detection: 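Plate reader light from a firefly reporter under a ptc promoter fragment that responds to Hedgehog, with Renilla light as transfection reference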
Scale: firefly Hh reporter signal: higher = more ptc reporter light; Renilla reference signal: higher = more Renilla control light
Rule for the call: 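Called a hit if the two-replicate mean z-score lies below -2 or above +3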
Calls: active = hit: reporter lowered or raised; inactive = not a hit

| gene | DRSC id | firefly Hh reporter signal, replicate 1 | firefly Hh reporter signal, replicate 2 | firefly Hh reporter signal, replicate 3 | Renilla reference signal, replicate 1 | Renilla reference signal, replicate 2 |
| --- | --- | --- | --- | --- | --- | --- |
| Amy-d + Amy-p | DRSC21242 | 1.12e5 | 2.58e5 | – | 4589 | 9700 |
| Traf-like | DRSC19894 | 77860 | 80631 | – | 1691 | 1243 |
| stl | DRSC04396 | 80413 | 34064 | – | 3552 | 1424 |
| CG34050 (retired record) | DRSC09067 | 46649 | 77856 | – | 1740 | 4509 |
| CG4949 | DRSC19926 | 1.18e5 | 1.36e5 | – | 2800 | 2861 |
| obst-B | DRSC01987 | 1.03e5 | 51628 | – | 4146 | 2396 |
| CG10301 | DRSC14226 | 4.72e5 | 88452 | – | 24560 | 2853 |
| CG13457 | DRSC10004 | 1.08e5 | – | – | 6183 | 3094 |
| QIL1 | DRSC10888 | 75584 | – | – | 4581 | 3152 |
| a6 | DRSC18733 | 1.16e5 | 90240 | – | 2881 | 3245 |
| Hira | DRSC18672 | 86999 | 3.14e5 | – | 2249 | 12697 |
| CG6324 | DRSC19985 | 74385 | 1.92e5 | – | 2161 | 7651 |
| bc10 | DRSC11326 | 54093 | 59386 | – | 5568 | 3949 |
| MFS15 | DRSC06523 | 76011 | 40641 | – | 1835 | 1270 |
| Mrgn1 | DRSC20223 | 90560 | 68137 | – | 1785 | 822 |
| mRpS33 | DRSC14239 | 1.30e5 | 1.11e5 | – | 2683 | 485 |
| lectin-33A | DRSC02529 | 1.58e5 | 59810 | – | 3940 | 5113 |
| CG13807 | DRSC08342 | 77352 | 39045 | – | 2757 | 3388 |
| rux | DRSC18829 | 72816 | 65063 | – | 1908 | 1590 |
| CG6567 | DRSC16066 | 50477 | 79059 | – | 1355 | 2093 |
| Spn31A | DRSC02780 | 1.11e5 | 35808 | – | 2724 | 3785 |
| Diedel3 | DRSC19544 | 58869 | 2.26e5 | – | 1825 | 10520 |
| CG8086 | DRSC03078 | 79632 | 94221 | – | 3017 | 4349 |
| CG8086 | DRSC03079 | 1.04e5 | 42093 | – | 2625 | 4535 |
| CG32700 | DRSC17857 | 87564 | 2.77e5 | – | 2724 | 10492 |
| CG32700 | DRSC17858 | 68688 | 1.86e5 | – | 2434 | 7320 |
| CG7739 | DRSC10910 | 1.16e5 | – | – | 905 | 4036 |
| CG8236 | DRSC16399 | 1.12e5 | 1.25e5 | – | 3283 | 6450 |
| swm | DRSC02012 | 1.53e5 | 7.37e5 | 1.16e5 | 6900 | 41130 |
| CG5577 | DRSC10519 | 1.01e5 | 45904 | – | 3763 | 1964 |
| CG10802 | DRSC17762 | 2.04e5 | 1.28e5 | – | 4544 | 4692 |
| Polr1H | DRSC14594 | 81768 | 60615 | – | 4272 | 2731 |
| CG6923 | DRSC16136 | 1.13e5 | 1.02e5 | – | 6016 | 4240 |
| Su(var)3-7 | DRSC16872 | 64948 | 59259 | – | 2109 | 1650 |
| RPA1 | DRSC16830 | 71777 | 90965 | – | 3173 | 3843 |
| indra | DRSC08558 | 78755 | 69616 | – | 3939 | 3297 |
| Def | DRSC07398 | 1.00e5 | 68212 | – | 2668 | 5472 |
| Tango6 | DRSC02671 | 42379 | 63417 | – | 2034 | 2640 |
| CG14715 | DRSC14938 | 1.02e5 | 98022 | – | 3824 | 4152 |
| opa | DRSC12384 | 1.41e5 | 1.89e5 | – | 4800 | 4108 |
| Gprk2 | DRSC16682 | 49668 | 27958 | – | 892 | 813 |
| Trpml + CG42638 | DRSC11032 | 75548 | 69013 | – | 3127 | 3078 |
| rost | DRSC03603 | 1.20e5 | 88016 | – | 5011 | 3557 |
| CG13048 | DRSC09929 | 1.00e5 | – | – | 4075 | 2915 |
| Aldh | DRSC02717 | 93569 | 36922 | – | 2565 | 4267 |
| Taldo | DRSC04320 | 70272 | 61863 | – | 3376 | 2489 |
| CG6833 | DRSC10721 | 85238 | 50902 | – | 3584 | 1864 |
| CG32652 (retired record) | DRSC18942 | 8.26e5 | 6.66e5 | 3.79e5 | 46275 | 5510 |
| Dlip2 | DRSC12346 | 1.38e5 | 1.57e5 | – | 5222 | 4704 |
| laf | DRSC12246 | 74380 | 1.05e5 | – | 3083 | 1984 |
| Pp1-87B | DRSC16794 | 75648 | 63064 | – | 3717 | 3088 |
| CG3630 | DRSC18499 | 1.26e5 | 78100 | – | 2901 | 2459 |
| CHOp24 | DRSC18310 | 98218 | 1.13e5 | – | 1373 | 3431 |
| CG1737 | DRSC19771 | 5.84e5 | 1.10e5 | – | 2981 | 2981 |
| Rox8 | DRSC16829 | 5.38e5 | 69656 | – | 26165 | 2145 |
| M6 | DRSC11869 | 63194 | 98272 | – | 2197 | 2416 |
| CG17754 | DRSC18131 | 88760 | 60763 | – | 2055 | 1539 |
| CG15449 | DRSC20521 | 1.49e5 | 3.04e5 | – | 5733 | 13412 |
| e(r) | DRSC18768 | 93942 | 89062 | – | 2675 | 1832 |
| CG11368 | DRSC17778 | 83443 | 1.82e5 | – | 2604 | 6971 |
| IPIP | DRSC02164 | 1.40e5 | 1.27e5 | – | 6284 | 5592 |
| bsh | DRSC03498 | 4.32e5 | 77264 | – | 4297 | 4297 |
| Cnep1r1 | DRSC20620 | 95062 | 2.38e5 | – | 3501 | 9239 |
| CG14300 | DRSC14779 | 7.10e5 | 1.32e5 | – | 37916 | 3497 |
| AstCC | DRSC02404 | 1.18e5 | 62825 | – | 3025 | 6108 |
| Vago | DRSC19833 | 87216 | 1.64e5 | – | 2659 | 7149 |
| CG4271 | DRSC00649 | 1.27e5 | 1.05e5 | – | 2984 | 2480 |
| m | DRSC20181 | 38954 | 1.65e5 | – | 1440 | 8122 |
| CG13947 | DRSC00365 | 1.70e5 | 1.14e5 | – | 4272 | 2850 |
| Coq6 | DRSC03040 | 83715 | 96376 | – | 3380 | 4643 |
| Rab7 | DRSC16810 | 1.21e5 | 63378 | – | 5065 | 2972 |
| CG14628 | DRSC18626 | 92800 | 2.45e5 | – | 2471 | 10000 |
| CG14671 | DRSC12257 | 95632 | 1.44e5 | – | 3344 | 4064 |

Targets listed so far whose gene name begins with T or t (4):
| gene | DRSC id | firefly Hh reporter signal, replicate 1 | firefly Hh reporter signal, replicate 2 | firefly Hh reporter signal, replicate 3 | Renilla reference signal, replicate 1 | Renilla reference signal, replicate 2 |
| --- | --- | --- | --- | --- | --- | --- |
| Traf-like | DRSC19894 | 77860 | 80631 | – | 1691 | 1243 |
| Tango6 | DRSC02671 | 42379 | 63417 | – | 2034 | 2640 |
| Trpml + CG42638 | DRSC11032 | 75548 | 69013 | – | 3127 | 3078 |
| Taldo | DRSC04320 | 70272 | 61863 | – | 3376 | 2489 |
